{"source": "PubChem BioAssay AID2685", "about": "(National Center for Advancing Translational Sciences (NCATS), 2010)", "assay": "qHTS Assay for Lipid Storage Modulators in Drosophila S3 Cells;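 for cell number change: cells counted by Cell Tracker Red CMTPX staining in the red channel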", "conditions": "BODIPY lipid droplet fluorescence, 18-24 h; for cell number change: measured here: cell count max response, cells fed with added oleic acid", "procedure,_shortened": "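Drosophila S3 cells got compounds at several concentrations plus oleic acid (400 uM solution). Laser-scanning cytometry with 488 nm excitation read lipid droplets at 500-530 nm and cells at 575-640 nm. Percent activity was relative to 20 uM Triacsin C.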", "key": {"[1]": {"conditions": "measured here: cell number channel AC50, cells fed with added oleic acid"}, "[2]": {"conditions": "measured here: lipid fluorescence (Fed channel) AC50, cells fed with added oleic acid"}}, "note": "The list shows a part of the results. Shown are side measurements of this screen, not its main read-out; they come without a call. The list favours compounds with an active or inconclusive main result. Potencies come from curve fits of mixed quality, noted in brackets.", "data": [{"compound": "O=C(COc1ccccc1F)Nc1cc(S(=O)(=O)Nc2cccc(Cl)c2)ccc1O", "values": [{"measurement": "cell number change", "result": -10.4, "unit": "%"}]}, {"compound": "O=C(NC1CCCCC1)C(c1ccc2ncccc2c1)N(Cc1ccc(F)cc1)C(=O)c1cccs1", "note": "(centres undefined)", "values": [{"measurement": "cell number change", "result": 144, "unit": "%"}, {"measurement": "AC50", "setting": "[1]", "result": "29.1 µM [rising, single point]"}]}, {"compound": "CC(=O)N1CCN(S(=O)(=O)c2cccc(C(=O)Nc3ccccc3N3CCCC3)c2)CC1", "values": [{"measurement": "cell number change", "result": -22.8, "unit": "%"}, {"measurement": "AC50", "setting": "[2]", "result": "0.82 µM [falling, single point]"}]}, {"compound": "CC(C)CNC(=O)NC1(C(F)(F)F)Oc2ccccc2O1", "values": [{"measurement": "AC50", "setting": "[2]", "result": "0.58 µM [falling, full curve]"}]}, {"compound": "CCOc1ccc(CC(=O)N/N=C/c2cccnc2)cc1OCC", "values": [{"measurement": "cell number change", "result": 18.8, "unit": "%"}]}, {"compound": "C/C(CCC1CC(C)OC1=O)=N\\NC(N)=O", "note": "(centres undefined)", "values": [{"measurement": "cell number change", "result": 15.6, "unit": "%"}, {"measurement": "AC50", "setting": "[1]", "result": "2.59 µM [rising, partial curve]"}, {"measurement": "AC50", "setting": "[2]", "result": "3.26 µM [rising, partial curve]"}]}, {"compound": "C/C(=N\\NC(=O)c1nc(C)cc(C)n1)c1ccccc1", "values": [{"measurement": "cell number change", "result": 45.4, "unit": "%"}, {"measurement": "AC50", "setting": "[1]", "result": "1.64 µM [rising, full curve, poor fit]"}, {"measurement": "AC50", "setting": "[2]", "result": "1.3 µM [rising, partial curve]"}]}, {"compound": "O=[N+]([O-])c1ccc(-c2csc(Nc3ccccc3)[n+]2Cc2ccccc2)cc1", "values": [{"measurement": "AC50", "setting": "[2]", "result": "16.4 µM [falling, partial curve]"}]}, {"compound": "CC(=O)Nc1ccc(C(=O)NNC(=O)CCc2ccccc2)cc1", "values": [{"measurement": "cell number change", "result": 15.8, "unit": "%"}, {"measurement": "AC50", "setting": "[2]", "result": "18.4 µM [rising, single point]"}]}, {"compound": "CN(Cc1ccccc1)C(=O)N[C@@H](Cc1ccccc1)C(=O)O", "values": [{"measurement": "cell number change", "result": 1.61, "unit": "%"}]}, {"compound": "Cc1n[nH]c(C)c1S(=O)(=O)N1CCCC(C(=O)Nc2ccc3c(c2)OCCO3)C1", "note": "(centres undefined)", "values": [{"measurement": "AC50", "setting": "[1]", "result": "3.66 µM [falling, partial curve, poor fit]"}, {"measurement": "AC50", "setting": "[2]", "result": "3.66 µM [falling, partial curve]"}]}, {"compound": "CCCCOc1ccc(S(=O)(=O)n2c(C)nc3ccccc32)cc1", "values": [{"measurement": "cell number change", "result": 143, "unit": "%"}, {"measurement": "AC50", "setting": "[2]", "result": "18.4 µM [rising, single point]"}]}, {"compound": "CCC(C)(C)NC(=O)C(c1cccc(OC)c1OC)N(CCC(C)C)C(=O)CCC(=O)Nc1cc(C)on1", "note": "(centres undefined)", "values": [{"measurement": "cell number change", "result": -23.5, "unit": "%"}]}, {"compound": "Cc1cc(C)cc(-n2nnnc2SCC(=O)Nc2nc(-c3ccc(Cl)cc3)cs2)c1", "values": [{"measurement": "cell number change", "result": 45.2, "unit": "%"}]}, {"compound": "CCCn1cc(CN2CCC(n3nccc3NC(=O)c3ccc4c(c3)OCO4)CC2)c(C)n1", "values": [{"measurement": "cell number change", "result": -8.26, "unit": "%"}, {"measurement": "AC50", "setting": "[2]", "result": "23.1 µM [rising, partial curve]"}]}, {"compound": "COc1ccccc1NC(=O)COc1ccc(-c2nn(C)c(=O)c3ccccc23)cc1", "values": [{"measurement": "cell number change", "result": -6.41, "unit": "%"}, {"measurement": "AC50", "setting": "[2]", "result": "13 µM [rising, partial curve]"}]}, {"compound": "O=C(NNS(=O)(=O)c1ccc(Cl)cc1)c1sccc1-n1cccc1", "values": [{"measurement": "cell number change", "result": 15.8, "unit": "%"}, {"measurement": "AC50", "setting": "[2]", "result": "0.58 µM [rising, single point]"}]}, {"compound": "CC(C)C(=O)N1CCN(CCN2C(=O)c3cccc4cccc(c34)C2=O)CC1", "values": [{"measurement": "cell number change", "result": -9.72, "unit": "%"}]}, {"compound": "COC(=O)c1cc(C)sc1NC(=O)C1CC(=O)NN1Cc1ccccc1", "note": "(centres undefined)", "values": [{"measurement": "cell number change", "result": -28.1, "unit": "%"}, {"measurement": "AC50", "setting": "[1]", "result": "2.31 µM [falling, full curve, poor fit]"}, {"measurement": "AC50", "setting": "[2]", "result": "1.46 µM [falling, full curve]"}]}, {"compound": "CCCn1c(=O)c2c(nc3n2CCCN3Cc2ccccc2)n(C)c1=O", "values": [{"measurement": "cell number change", "result": -30.6, "unit": "%"}, {"measurement": "AC50", "setting": "[1]", "result": "0.0184 µM [falling, full curve, poor fit]"}]}, {"compound": "CC1(C)Cc2c(sc(NC(=O)C(=O)N3CCN(CCO)CC3)c2C(N)=O)CO1", "values": [{"measurement": "AC50", "setting": "[2]", "result": "29.1 µM [rising, single point]"}]}, {"compound": "O=C(CNc1cccc(Cl)c1)c1ccc(Br)cc1", "values": [{"measurement": "cell number change", "result": 24.7, "unit": "%"}, {"measurement": "AC50", "setting": "[2]", "result": "20.6 µM [rising, partial curve]"}]}, {"compound": "Cc1cc(OCC(=O)NNC(=O)c2cccc(F)c2)ccc1Cl", "values": [{"measurement": "cell number change", "result": -37.9, "unit": "%"}, {"measurement": "AC50", "setting": "[1]", "result": "29.1 µM [falling, single point]"}, {"measurement": "AC50", "setting": "[2]", "result": "25.9 µM [falling, single point]"}]}, {"compound": "Cc1cc(NS(=O)(=O)c2ccc(NC(=O)/C=C/c3ccccc3Cl)cc2)no1", "values": [{"measurement": "cell number change", "result": -1.51, "unit": "%"}, {"measurement": "AC50", "setting": "[2]", "result": "1.46 µM [rising, full curve]"}]}, {"compound": "CCC12CN3CCN(CC(C3)/C1=N\\NC(=O)c1ccc(F)cc1)C2", "values": [{"measurement": "cell number change", "result": 33.1, "unit": "%"}, {"measurement": "AC50", "setting": "[1]", "result": "29.1 µM [rising, single point]"}, {"measurement": "AC50", "setting": "[2]", "result": "25.9 µM [rising, single point]"}]}, {"compound": "O=C(c1ccc2c(c1)OCO2)N1CCN(S(=O)(=O)c2ccc(Cl)cc2)CC1", "values": [{"measurement": "cell number change", "result": 5.22, "unit": "%"}]}, {"compound": "CCN(CC)c1ccc(/C=C/C(=O)C2C(=O)C=C(C)OC2=O)cc1", "note": "(centres undefined)", "values": [{"measurement": "cell number change", "result": -102, "unit": "%"}]}, {"compound": "O=C1CC(c2ccc(F)cc2)Sc2ccccc2N1", "note": "(centres undefined)", "values": [{"measurement": "cell number change", "result": -39.6, "unit": "%"}, {"measurement": "AC50", "setting": "[1]", "result": "25.9 µM [falling, single point]"}, {"measurement": "AC50", "setting": "[2]", "result": "16.4 µM [falling, single point]"}]}, {"compound": "N#CCOC(=O)/C=C/c1ccc2c(c1)OCO2", "values": [{"measurement": "cell number change", "result": 71.4, "unit": "%"}, {"measurement": "AC50", "setting": "[1]", "result": "14.6 µM [rising, partial curve]"}]}, {"compound": "CN(C)c1ccc(/C=N/N2C(=O)c3ccccc3C2=O)cc1", "values": [{"measurement": "cell number change", "result": 10, "unit": "%"}, {"measurement": "AC50", "setting": "[2]", "result": "29.1 µM [rising, single point]"}]}, {"compound": "O=C(NNc1nc(Nc2ccccc2)nc(N2CCOCC2)n1)Nc1ccc(Cl)cc1", "values": [{"measurement": "cell number change", "result": -28.2, "unit": "%"}]}, {"compound": "O=C(/C=C/C=C/c1ccccc1)CC1(O)C(=O)N(CCc2ccccc2)c2ccccc21", "note": "(centres undefined)", "values": [{"measurement": "cell number change", "result": 17, "unit": "%"}, {"measurement": "AC50", "setting": "[1]", "result": "2.59 µM [rising, partial curve, poor fit]"}]}, {"compound": "COc1ccc(OCc2cc(C(=O)NCCN3CCCc4ccccc43)no2)c(Cl)c1", "values": [{"measurement": "cell number change", "result": 3.52, "unit": "%"}, {"measurement": "AC50", "setting": "[2]", "result": "29.1 µM [falling, single point]"}]}, {"compound": "OCC1(Cc2cccc(C(F)(F)F)c2)CCN(Cc2cc(F)cc(F)c2)CC1", "values": [{"measurement": "cell number change", "result": -22.4, "unit": "%"}, {"measurement": "AC50", "setting": "[2]", "result": "32.6 µM [falling, single point]"}]}, {"compound": "O=S(=O)(Nc1ccccc1O)c1ccc(-c2ccccc2)cc1", "values": [{"measurement": "cell number change", "result": -42.4, "unit": "%"}, {"measurement": "AC50", "setting": "[1]", "result": "35.5 µM [falling, single point]"}, {"measurement": "AC50", "setting": "[2]", "result": "15.8 µM [falling, single point]"}]}, {"compound": "COc1ccc(CCNC(=S)NC2CCN(Cc3ccccc3)CC2)cc1OC", "values": [{"measurement": "cell number change", "result": -30.1, "unit": "%"}, {"measurement": "AC50", "setting": "[1]", "result": "29.1 µM [falling, single point]"}, {"measurement": "AC50", "setting": "[2]", "result": "32.6 µM [falling, single point]"}]}, {"compound": "COCCCn1c(C(=O)Nc2ccc3c(c2)OCO3)cc2c(=O)n3ccccc3nc21", "values": [{"measurement": "cell number change", "result": 18.3, "unit": "%"}, {"measurement": "AC50", "setting": "[2]", "result": "4.11 µM [falling, single point]"}]}, {"compound": "COc1ccc(/C=C/C(=O)c2sc(-c3ccccc3)nc2C)cc1", "values": [{"measurement": "AC50", "setting": "[2]", "result": "1.03 µM [rising, full curve]"}]}, {"compound": "Cc1cc(C)c2c(N)c3ccccc3nc2n1", "values": [{"measurement": "cell number change", "result": 137, "unit": "%"}, {"measurement": "AC50", "setting": "[1]", "result": "9.2 µM [rising, partial curve]"}, {"measurement": "AC50", "setting": "[2]", "result": "18.4 µM [rising, partial curve]"}]}]}
